Measurements from article PMC6240210.
Results are given in words; binding and its absence hold for the method and conditions named. Binding seen in cells or lysates may run through a third protein. Some entries that bind do so weakly or less than the wild type.

Chains of the proteins cited; added tags and fusions are not shown. Lines headed by an entry give the natural chain unless they say otherwise; changes in a name come on top.
UniProt P31749: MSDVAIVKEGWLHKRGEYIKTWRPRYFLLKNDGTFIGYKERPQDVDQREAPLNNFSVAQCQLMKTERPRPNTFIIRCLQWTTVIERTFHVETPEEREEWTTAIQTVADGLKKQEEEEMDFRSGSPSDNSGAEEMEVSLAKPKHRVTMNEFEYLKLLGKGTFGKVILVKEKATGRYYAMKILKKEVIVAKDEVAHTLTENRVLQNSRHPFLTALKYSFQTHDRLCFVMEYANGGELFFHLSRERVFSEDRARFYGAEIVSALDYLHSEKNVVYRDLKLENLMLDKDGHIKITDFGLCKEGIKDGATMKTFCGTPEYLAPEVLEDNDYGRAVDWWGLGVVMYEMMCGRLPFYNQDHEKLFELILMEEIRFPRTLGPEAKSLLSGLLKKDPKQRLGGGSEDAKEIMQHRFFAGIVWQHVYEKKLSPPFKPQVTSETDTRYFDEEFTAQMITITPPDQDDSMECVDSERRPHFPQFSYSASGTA
UniProt Q9Y2I7: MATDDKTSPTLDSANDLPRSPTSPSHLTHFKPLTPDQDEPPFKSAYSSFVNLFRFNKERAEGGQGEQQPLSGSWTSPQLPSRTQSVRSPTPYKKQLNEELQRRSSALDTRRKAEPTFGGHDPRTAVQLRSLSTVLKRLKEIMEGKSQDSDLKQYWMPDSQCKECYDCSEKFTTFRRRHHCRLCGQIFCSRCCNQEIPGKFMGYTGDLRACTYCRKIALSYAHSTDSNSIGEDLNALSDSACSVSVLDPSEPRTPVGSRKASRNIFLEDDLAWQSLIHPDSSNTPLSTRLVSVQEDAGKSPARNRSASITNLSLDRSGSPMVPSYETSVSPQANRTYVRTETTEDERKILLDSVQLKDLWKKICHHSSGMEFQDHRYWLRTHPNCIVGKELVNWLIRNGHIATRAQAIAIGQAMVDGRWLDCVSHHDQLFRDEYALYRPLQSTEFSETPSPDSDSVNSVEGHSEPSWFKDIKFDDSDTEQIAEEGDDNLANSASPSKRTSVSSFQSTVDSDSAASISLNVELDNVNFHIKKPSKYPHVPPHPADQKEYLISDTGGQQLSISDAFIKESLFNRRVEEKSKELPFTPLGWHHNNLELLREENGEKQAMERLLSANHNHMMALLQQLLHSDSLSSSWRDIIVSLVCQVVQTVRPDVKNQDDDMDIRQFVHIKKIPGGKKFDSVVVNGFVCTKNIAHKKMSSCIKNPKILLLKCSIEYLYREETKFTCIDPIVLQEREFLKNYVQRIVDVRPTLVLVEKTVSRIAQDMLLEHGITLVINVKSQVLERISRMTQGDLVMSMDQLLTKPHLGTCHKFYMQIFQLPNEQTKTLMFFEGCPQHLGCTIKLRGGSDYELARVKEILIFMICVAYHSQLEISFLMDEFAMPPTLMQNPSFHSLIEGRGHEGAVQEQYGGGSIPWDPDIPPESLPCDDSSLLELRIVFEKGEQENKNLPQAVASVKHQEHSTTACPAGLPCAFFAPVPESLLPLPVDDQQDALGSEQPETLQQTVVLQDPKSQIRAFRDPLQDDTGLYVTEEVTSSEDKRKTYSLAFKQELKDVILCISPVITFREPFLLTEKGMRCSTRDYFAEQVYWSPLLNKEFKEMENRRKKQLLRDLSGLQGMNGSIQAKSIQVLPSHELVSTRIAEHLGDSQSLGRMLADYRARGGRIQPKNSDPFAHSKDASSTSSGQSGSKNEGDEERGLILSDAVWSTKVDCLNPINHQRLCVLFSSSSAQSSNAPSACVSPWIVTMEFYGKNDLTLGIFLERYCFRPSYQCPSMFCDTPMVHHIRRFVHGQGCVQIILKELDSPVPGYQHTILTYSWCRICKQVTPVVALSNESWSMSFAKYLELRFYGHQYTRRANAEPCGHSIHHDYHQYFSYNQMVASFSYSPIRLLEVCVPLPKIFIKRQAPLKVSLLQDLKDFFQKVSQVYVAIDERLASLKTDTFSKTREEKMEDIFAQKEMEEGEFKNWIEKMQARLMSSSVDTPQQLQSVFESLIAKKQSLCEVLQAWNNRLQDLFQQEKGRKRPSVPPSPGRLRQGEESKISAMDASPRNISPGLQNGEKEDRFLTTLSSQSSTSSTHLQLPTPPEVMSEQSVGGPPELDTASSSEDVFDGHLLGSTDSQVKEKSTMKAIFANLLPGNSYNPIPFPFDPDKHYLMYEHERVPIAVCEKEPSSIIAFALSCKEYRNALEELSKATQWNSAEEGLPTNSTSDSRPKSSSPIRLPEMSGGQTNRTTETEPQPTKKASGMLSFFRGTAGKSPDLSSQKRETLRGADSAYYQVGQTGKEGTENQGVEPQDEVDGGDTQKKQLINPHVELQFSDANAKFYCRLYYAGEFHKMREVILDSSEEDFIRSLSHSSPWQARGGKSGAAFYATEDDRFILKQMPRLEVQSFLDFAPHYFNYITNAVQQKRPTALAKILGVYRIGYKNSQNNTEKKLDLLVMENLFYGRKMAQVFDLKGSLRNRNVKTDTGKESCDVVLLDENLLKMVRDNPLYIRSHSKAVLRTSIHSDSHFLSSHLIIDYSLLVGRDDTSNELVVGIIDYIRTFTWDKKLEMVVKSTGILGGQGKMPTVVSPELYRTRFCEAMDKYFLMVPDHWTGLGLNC

Target: Akt1 (human (endogenous in MCF-7 and MDA-MB-231)) (UniProt P31749)
Test: co-IP; lysates of transfected MCF-7 and MDA-MB-231 cells (20 mM Tris-HCl pH 7.4, 100 mM NaCl, 1% NP40); precipitated with anti-Akt1 antibody and protein A/G agarose at 4 °C, SDS-PAGE

Row | Substance | binding
1 | WT Flag-PIKfyve (from UniProt Q9Y2I7 1-2098) | binds
2 | S318A mutant PIKfyve (from UniProt Q9Y2I7 1-2098) | no binding
